Reference: the supplement of paper PMC3334620
The full ranking holds about 33,000 sequences; the median of “E-score (-0.5 to 0.5)” is about -0.015, and the highest 2% start at about 0.3. This is one part of the list.

Molecular target: T1, Abf1 (UniProt P14164)
T1 sequence: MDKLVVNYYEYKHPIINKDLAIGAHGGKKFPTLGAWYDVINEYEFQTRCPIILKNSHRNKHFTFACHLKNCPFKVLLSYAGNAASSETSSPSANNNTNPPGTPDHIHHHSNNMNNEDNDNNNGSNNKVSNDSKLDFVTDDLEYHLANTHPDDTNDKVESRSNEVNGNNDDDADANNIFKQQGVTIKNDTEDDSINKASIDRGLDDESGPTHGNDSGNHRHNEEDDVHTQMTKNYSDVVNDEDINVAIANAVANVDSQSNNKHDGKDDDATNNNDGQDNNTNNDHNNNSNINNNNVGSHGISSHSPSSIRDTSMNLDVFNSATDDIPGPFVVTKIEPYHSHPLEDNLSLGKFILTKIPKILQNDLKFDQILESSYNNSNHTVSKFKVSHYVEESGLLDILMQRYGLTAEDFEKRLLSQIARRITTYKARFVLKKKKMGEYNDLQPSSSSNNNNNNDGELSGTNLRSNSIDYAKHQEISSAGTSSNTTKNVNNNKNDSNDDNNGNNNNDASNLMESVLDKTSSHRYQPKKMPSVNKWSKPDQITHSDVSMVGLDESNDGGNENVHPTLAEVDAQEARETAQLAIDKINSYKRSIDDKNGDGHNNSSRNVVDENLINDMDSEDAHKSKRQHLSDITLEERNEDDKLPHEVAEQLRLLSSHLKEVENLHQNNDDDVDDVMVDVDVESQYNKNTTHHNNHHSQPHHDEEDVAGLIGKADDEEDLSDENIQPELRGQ
Experiment: PBM E-score (8-mer binding enrichment) (E-score (-0.5 to 0.5)); higher = stronger / more preferred TF binding
Conditions: protein concentration: 200 nM; construct: GST-full length
Outline: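 Full-length yeast transcription factors or their DNA-binding domains, GST-tagged and expressed with PURExpress, were applied at about 100-200 nM to universal all-10-mer Agilent arrays. These arrays had been made double-stranded by primer extension on fresh or once-stripped slides. Detection used fluorescent anti-GST, normalisation used masliner, and E-scores for ungapped eight-base words pooled with reverse complements came from the Universal PBM Analysis Suite.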

Sequence	PBM E-score
ACTGCCAT	-0.0294
CGCTCCTC	-0.182
GCACATCC	-0.178
ACCCTACG	0.0801
AGTCATAC	-0.0195
ACCGGGAT	-0.103
CGTTCCGA	0.124
CGTACCCC	0.0746
ACAAAGAT	0.0934
AGGCTGTA	0.0914
ATCCTCTC	-0.102
GGGAGGCA	-0.284
GTCGCAAA	0.0278
AATTCCTA	0.0961
CTAGGCAG	-0.163
ACATTATC	0.198
CGACCAGC	-0.11
ACATGGAA	-0.00293
ACACCGGT	-0.131
GAGTCACA	-0.0473
CCACAACA	-0.261
AGTGGGGA	-0.159
AAGCTCTC	-0.125
TTCCCGAA	-0.02
TCCTACGA	0.347

Not a retest: entries from further up.
Sequence	PBM E-score
GGGAGGCA	-0.284
GTCGCAAA	0.0278
AATTCCTA	0.0961

Exported as a markdown table: part of the list above

| Sequence | PBM E-score |
| --- | --- |
| ACCGGGAT | -0.103 |
| CGTTCCGA | 0.124 |

Continuation:

Sequence	PBM E-score
ACGCTATA	-0.097
AGTTACTC	-0.0211
ATATTTTG	0.174
ACTGTGTA	0.00452
ATGTCTCA	0.141
CCCGTATA	0.289
AAATTGAC	0.0443
CCTTTTAG	-0.16
ATATATAA	0.195
ATACAAAA	0.0848
GCACGTAC	-0.056
ACACTTTC	0.0546
ACTCTGCT	-0.102
CCACACTC	-0.0363
ATGCGAGC	-0.174
CCCCCTCA	-0.349
CATAGGGA	-0.043
GCTGTGTA	-0.0689
CTCTAAGC	-0.141
ACAAAGAC	0.0139
CCGAATAG	-0.0809
ACGTGGAT	0.172
ACCCCAAC	0.0502
ACGCAGTG	-0.0566
ACCTAGGC	-0.251

Sequence	PBM E-score
CATCAGTC	-0.0698
GGTAGTAA	-0.13
AAGGTCGA	-0.00242
GGTCGAAC	-0.0647
CACCGTCA	0.245
AGATTGCG	-0.178
GTATCTCA	0.155
GCGCGCTA	0.0816
AGATGACA	0.316
TCATCTAA	0.169
GGAGAAAA	-0.0587
CTGGGAAA	0.0449
AGTCATAA	-0.0115
CAGAGCTG	-0.3
AATCAGAC	-0.072
CATCCACG	0.188
CCGGGGCG	-0.206
CAATCGTG	0.122
GCCATGCA	0.015
ATTCTTTA	-0.0415
GCCGTAAA	0.126
CCACAACG	-0.168
TATCCGGA	0.06
GTCTAGTA	0.163
ATGGCTGC	-0.0954

Sequence	PBM E-score
CCTAATAC	0.0651
ACTAGTTA	0.104
ACGGAACG	0.29
TCAGAAGA	0.0707
CGCAAACA	0.0853
CTTATAAA	0.0958
ACGACCGC	0.041
CCCCTTGC	-0.282
CAGTGGCC	-0.181
CAAATAGC	-0.0676
CTCCTGTA	-0.0785
CGGGCAAC	-0.152
GTACCACA	0.0854
CATAATAG	0.0952
ACGCCTGG	-0.0398
GTTTTTTA	0.0474
CCATATCA	0.163
CGACCCGC	0.0246
AGCTTCAT	-0.116
AGTCTTTC	-0.183
CCTCGGGA	-0.124
AACTACTC	0.0314
CACTCGGC	-0.0263
GCTTCTCA	-0.069
CCGGTAGG	-0.195

Sequence	PBM E-score
AAGCGAAT	0.194
AACTTTAC	0.067
ATGCACCA	0.023
CGCCTTTC	-0.16
CGCGTCCA	-0.048
GGATACCC	0.00814
ATAAATGA	0.288
AATCCCAT	-0.114
GATCCCGC	-0.0283
CGAGATCG	0.21
AGACGAAA	0.296
CCAGCGCC	-0.326
TAATTGAA	-0.00248
CCGAGTCC	-0.0682
AAGATGCA	0.0604
AAAATTAA	0.121
CTTTCACA	0.116
AACAAGAG	-0.249
CATGCCAC	-0.191
GCGGCCTA	-0.227
CTACTCAG	-0.124
AGCGGTCC	-0.115
AATGCCTG	-0.0437
TACGTGAA	0.181
CTAAGGGA	0.106

Sequence	PBM E-score
ACAAGTCT	0.135
TATCGACA	0.0331
ATAAGTTC	0.0514
CCCGACGG	0.105
TATCGCCA	0.186
CATCACAA	0.0688
AAAGCCGG	0.0367
AGACATAT	0.132
CACTCGTC	0.203
GAACTACA	-0.0916
GTGATCCA	0.132
AGATAGTA	0.134
GGGAGCCA	-0.334
CGACATCA	0.315
AGCGGCGC	-0.309
GCCCTTAA	-0.0919
GAAGGGTC	-0.227
CAGTGCCA	-0.127
ATCTAGAT	-0.0888
AGGTTTGG	-0.0175
ACAAGTCC	-0.0241
GAATAACA	-0.0615
CTCTTAGC	-0.185
ATCAGTCA	0.117
ATGAACTC	-0.088

Sequence	PBM E-score
GTGTACAA	0.195
GACCACTA	-0.0806
AGGAGAAA	-0.174
CTCTATGA	-0.0133
AAATTGCG	-0.00473
AATAGACA	0.00762
GGCTTTAC	-0.225
ACCGGAGT	-0.128
ACGCTCCC	-0.0883
AAGCCATA	0.0416
TCTTTTCA	0.174
GAACGGTC	0.0634
AACTGACA	-0.103
GAAGCTTA	-0.0251
AATATATC	0.139
ATTACCAC	0.0192
AGGAAAAT	-0.00369
GATTAAGA	0.174
AATACCAA	0.148
GGATCAGA	-0.158
AACTAATC	-0.05
CTATGTAC	0.0598
